Structures are written as SMILES. Several values for one entry are separate records, joined by “and”; a condition that tells them apart may be missing. Identical values can stand only once.

For the data set, the system named is sodium current of DRG neurons. The data set is described as follows: whole cell patch clamp, sodium currents in DRG neurons. The note with it: maleate. Format: cell-based, rat. In general terms: Patch clamp records ionic current or voltage across a cell membrane.

Take `CCC(COC(=O)c1cc(OC)c(OC)c(OC)c1)(c1ccccc1)N(C)C.O=C(O)/C=C\C(=O)O` (racemic) [trimebutine, 2-dimethylamino-2-phenylbutyl 3,4,5-trimethoxybenzoate hydrogen maleate]: the “nH (Hill coefficient), Na+ current block” value was 1.02 and 1.09±0.10.

These data come from patent publication US6353024B1, “Method for preventing and treating arthritis, osteo-traumatic pain, and neuralgias with trimebutine” (Warner-Lambert Company, priority 2000, dated 2002).
